Test results as given in PMC10193302.
These are yes or no findings as the source states them, for the method shown. Binding seen in cells or lysates may run through a third protein. A yes stands for co-enrichment or nearness to the bait. Other partners may have been found. Where a sequence is shown, tags or fusion partners need not be part of it. Each block holds one molecule with its values, some of them ahead of it.

Chains of the proteins cited; added tags and fusions are not shown.
UniProt E9Q4F7: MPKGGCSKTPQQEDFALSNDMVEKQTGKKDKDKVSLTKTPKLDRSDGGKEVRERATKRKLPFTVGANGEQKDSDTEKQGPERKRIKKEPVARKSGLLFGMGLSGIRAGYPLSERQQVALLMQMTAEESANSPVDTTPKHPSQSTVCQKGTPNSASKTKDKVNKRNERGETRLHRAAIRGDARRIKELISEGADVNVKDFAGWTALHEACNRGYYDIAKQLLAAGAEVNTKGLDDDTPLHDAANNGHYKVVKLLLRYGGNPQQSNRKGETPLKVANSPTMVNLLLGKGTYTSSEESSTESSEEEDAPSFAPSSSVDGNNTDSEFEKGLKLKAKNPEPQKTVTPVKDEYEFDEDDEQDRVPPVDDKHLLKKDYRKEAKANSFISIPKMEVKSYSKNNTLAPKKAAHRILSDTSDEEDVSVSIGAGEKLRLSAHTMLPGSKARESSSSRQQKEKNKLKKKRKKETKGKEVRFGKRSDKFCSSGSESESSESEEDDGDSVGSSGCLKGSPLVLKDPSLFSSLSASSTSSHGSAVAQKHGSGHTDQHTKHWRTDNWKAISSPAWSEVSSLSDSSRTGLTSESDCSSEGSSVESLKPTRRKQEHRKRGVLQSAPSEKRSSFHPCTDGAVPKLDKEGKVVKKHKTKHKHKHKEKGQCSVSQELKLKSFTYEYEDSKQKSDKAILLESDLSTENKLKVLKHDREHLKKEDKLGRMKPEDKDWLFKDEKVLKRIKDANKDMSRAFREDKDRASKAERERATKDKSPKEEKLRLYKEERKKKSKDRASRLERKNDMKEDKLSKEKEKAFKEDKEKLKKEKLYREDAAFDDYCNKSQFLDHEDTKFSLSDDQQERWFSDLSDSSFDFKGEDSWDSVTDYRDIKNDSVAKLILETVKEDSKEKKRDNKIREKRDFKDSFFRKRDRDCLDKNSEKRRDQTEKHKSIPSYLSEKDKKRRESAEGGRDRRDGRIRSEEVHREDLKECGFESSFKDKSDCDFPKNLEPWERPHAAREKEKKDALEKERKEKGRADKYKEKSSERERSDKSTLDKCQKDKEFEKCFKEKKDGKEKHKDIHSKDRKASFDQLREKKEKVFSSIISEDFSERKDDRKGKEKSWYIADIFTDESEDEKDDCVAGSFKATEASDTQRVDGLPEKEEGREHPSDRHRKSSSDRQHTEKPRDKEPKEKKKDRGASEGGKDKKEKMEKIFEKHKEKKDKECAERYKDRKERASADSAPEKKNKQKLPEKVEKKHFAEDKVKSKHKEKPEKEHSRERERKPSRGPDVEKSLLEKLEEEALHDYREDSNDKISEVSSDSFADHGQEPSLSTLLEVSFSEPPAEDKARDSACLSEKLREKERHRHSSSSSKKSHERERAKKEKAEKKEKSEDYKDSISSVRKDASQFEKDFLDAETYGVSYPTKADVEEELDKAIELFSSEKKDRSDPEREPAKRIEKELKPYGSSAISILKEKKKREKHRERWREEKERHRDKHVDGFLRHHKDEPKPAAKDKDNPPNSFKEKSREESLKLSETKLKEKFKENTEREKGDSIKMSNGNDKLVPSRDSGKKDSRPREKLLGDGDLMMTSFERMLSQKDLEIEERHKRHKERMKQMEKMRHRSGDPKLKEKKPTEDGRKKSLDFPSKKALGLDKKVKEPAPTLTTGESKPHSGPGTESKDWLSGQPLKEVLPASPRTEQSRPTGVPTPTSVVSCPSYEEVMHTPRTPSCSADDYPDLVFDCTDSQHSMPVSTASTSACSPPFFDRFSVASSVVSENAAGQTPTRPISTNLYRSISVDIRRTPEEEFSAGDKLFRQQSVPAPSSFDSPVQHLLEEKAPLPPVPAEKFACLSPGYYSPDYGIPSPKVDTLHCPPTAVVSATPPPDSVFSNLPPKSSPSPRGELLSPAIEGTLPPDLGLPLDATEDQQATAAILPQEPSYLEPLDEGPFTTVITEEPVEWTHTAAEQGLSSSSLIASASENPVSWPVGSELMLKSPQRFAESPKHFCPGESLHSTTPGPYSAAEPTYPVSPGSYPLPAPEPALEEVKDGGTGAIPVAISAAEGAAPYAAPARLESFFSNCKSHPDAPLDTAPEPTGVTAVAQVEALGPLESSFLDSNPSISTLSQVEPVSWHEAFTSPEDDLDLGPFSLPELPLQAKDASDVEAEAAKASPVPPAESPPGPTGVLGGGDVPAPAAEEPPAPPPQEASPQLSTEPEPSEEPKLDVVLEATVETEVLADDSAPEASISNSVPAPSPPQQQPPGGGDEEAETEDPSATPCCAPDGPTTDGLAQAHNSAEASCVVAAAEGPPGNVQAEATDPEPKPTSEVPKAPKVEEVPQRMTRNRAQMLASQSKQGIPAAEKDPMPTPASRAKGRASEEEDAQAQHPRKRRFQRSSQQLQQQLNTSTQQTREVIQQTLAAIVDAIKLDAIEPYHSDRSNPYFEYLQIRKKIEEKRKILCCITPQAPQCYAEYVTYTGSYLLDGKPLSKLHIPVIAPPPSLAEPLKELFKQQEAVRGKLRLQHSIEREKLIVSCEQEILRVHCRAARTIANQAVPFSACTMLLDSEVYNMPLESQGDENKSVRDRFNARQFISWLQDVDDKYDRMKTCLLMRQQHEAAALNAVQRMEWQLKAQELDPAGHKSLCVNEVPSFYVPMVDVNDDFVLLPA
UniProt Q60974: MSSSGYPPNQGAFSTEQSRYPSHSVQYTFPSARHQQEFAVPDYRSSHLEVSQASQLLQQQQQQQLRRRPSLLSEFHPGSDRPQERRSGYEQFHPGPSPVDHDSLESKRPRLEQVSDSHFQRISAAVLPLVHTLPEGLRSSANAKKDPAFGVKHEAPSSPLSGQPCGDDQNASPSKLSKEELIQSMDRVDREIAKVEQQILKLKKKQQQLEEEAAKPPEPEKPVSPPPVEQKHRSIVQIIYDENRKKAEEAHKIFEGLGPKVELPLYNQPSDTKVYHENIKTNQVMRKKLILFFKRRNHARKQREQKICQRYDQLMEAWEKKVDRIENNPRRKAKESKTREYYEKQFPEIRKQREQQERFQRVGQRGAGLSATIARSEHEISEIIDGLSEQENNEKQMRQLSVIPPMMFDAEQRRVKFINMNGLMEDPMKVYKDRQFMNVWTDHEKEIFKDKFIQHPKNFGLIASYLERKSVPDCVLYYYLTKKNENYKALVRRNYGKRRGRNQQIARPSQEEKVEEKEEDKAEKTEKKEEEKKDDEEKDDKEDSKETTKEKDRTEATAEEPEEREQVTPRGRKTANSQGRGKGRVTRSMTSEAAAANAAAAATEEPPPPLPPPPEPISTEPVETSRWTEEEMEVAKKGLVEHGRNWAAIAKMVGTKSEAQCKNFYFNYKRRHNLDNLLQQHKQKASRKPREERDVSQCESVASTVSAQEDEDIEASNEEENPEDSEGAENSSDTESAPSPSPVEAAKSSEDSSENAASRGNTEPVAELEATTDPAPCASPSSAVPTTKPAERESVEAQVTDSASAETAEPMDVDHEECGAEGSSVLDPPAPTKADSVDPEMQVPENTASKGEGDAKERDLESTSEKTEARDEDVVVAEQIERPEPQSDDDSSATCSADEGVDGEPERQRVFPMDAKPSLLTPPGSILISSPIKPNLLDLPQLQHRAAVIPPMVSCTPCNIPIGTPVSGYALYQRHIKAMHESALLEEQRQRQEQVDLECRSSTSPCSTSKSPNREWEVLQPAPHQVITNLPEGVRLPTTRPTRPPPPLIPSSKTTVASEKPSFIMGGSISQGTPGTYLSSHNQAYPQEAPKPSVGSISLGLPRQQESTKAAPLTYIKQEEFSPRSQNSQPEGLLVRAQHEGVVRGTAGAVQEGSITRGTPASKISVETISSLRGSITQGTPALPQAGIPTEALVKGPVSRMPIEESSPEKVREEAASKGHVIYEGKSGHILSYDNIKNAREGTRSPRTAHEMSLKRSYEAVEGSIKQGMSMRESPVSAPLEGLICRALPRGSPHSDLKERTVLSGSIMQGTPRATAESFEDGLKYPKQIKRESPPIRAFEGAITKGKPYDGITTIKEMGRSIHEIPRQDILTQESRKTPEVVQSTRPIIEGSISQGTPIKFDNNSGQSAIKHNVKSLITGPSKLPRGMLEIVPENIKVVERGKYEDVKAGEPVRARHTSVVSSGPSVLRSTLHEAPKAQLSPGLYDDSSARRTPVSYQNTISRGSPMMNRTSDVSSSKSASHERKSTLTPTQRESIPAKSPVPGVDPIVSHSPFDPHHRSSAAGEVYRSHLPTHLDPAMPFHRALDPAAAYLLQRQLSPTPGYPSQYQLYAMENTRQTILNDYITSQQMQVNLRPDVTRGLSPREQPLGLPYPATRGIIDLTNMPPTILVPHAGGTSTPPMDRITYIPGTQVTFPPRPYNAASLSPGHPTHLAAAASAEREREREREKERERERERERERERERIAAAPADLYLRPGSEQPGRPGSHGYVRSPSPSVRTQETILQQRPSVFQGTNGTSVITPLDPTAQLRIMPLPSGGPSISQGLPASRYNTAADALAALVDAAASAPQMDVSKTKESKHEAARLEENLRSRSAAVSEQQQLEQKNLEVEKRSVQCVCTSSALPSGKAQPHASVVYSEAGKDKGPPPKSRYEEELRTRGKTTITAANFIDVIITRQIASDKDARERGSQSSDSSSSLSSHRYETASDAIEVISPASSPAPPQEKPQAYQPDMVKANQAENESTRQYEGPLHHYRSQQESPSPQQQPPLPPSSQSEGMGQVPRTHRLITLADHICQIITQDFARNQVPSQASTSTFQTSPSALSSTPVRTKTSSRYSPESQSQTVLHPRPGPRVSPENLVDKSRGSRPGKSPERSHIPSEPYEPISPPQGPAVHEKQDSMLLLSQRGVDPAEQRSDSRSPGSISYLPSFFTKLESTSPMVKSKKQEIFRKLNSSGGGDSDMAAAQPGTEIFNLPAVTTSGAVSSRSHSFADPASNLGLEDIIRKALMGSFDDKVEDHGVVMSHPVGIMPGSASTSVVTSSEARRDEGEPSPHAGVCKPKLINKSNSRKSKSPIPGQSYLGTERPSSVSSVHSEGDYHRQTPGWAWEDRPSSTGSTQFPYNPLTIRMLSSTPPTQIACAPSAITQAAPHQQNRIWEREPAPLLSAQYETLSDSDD

Experiments:
[1] = target: T1, 3xFlag-tagged Erf (Ets2 repressor factor), construct PiggyBac-CAG-Avi-Erf-3xFlag-ires-Neo (mouse) (UniProt P70459); assay: affinity purification with mass spectrometry; anti-FLAG M2 agarose on nuclear extract of TSCs stably expressing Erf-3xFlag, treated with PD0325901 for 3 h and 24 h; 3 h at 4 C with Benzonase, buffer D (20 mM Hepes pH 7.6, 20% glycerol, 100 mM KCl); compared to an empty vector line, n = 3
T1 sequence: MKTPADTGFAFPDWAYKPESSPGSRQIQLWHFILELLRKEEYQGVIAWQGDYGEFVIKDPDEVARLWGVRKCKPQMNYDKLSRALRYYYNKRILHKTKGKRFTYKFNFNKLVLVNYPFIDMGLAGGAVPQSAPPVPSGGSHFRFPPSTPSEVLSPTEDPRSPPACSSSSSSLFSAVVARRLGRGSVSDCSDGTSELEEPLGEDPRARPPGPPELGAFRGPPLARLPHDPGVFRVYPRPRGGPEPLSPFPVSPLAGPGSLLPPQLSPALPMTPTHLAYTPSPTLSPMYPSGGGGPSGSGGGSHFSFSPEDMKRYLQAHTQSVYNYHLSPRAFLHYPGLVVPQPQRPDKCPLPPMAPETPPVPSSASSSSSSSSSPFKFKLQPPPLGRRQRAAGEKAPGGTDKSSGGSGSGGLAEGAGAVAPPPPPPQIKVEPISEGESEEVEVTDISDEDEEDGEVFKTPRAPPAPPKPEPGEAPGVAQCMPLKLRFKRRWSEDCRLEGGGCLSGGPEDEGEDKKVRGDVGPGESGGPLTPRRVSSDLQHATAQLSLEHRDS

[2] = target: T2, 3xFlag-tagged Tbl1x (transducin (beta)-like 1 X-linked), construct PiggyBac-CAG-Avi-Tbl1x-3xFlag-ires-Neo (UniProt Q9QXE7); assay: affinity purification with mass spectrometry; anti-FLAG M2 agarose on nuclear extract of TSCs stably expressing Tbl1x-3xFlag, after 3 h PD0325901 or 48 h withdrawal of Fgf and CM with CHIR99021; 3 h at 4 C with Benzonase, buffer D (20 mM Hepes pH 7.6, 20% glycerol, 100 mM KCl); compared to an empty vector line, n = 3
T2 sequence: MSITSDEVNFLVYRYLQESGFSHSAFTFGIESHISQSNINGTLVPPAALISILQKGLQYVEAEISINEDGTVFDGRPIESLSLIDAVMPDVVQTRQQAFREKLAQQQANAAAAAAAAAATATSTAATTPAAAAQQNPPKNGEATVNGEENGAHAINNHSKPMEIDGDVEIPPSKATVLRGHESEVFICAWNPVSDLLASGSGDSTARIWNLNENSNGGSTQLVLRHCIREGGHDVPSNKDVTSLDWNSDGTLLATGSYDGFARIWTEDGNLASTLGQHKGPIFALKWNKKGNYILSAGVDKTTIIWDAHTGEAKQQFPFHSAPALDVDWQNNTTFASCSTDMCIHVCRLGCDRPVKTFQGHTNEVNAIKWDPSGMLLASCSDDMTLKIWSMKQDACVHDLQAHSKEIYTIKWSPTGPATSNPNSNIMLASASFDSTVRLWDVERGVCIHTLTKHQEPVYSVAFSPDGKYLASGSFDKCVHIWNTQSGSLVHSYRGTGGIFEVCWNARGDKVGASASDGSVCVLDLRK

Molecule: Ankrd11 (from UniProt E9Q4F7 1-2643)
binding [1]: binds
binding [2]: binds

Molecule: Nuclear receptor co-repressor 1 (from UniProt Q60974 1-2453)
binding [1]: binds
binding [2]: binds

B1: Ets2 repressor factor (protein, UniProt P70459 1-551)
chain: T1 sequence
binding [2]: binds

B3: transducin (beta)-like 1 X-linked (protein, UniProt Q9QXE7 1-527)
chain: T2 sequence
binding [1]: binds

Continued, values first:

binding [1]: binds
binding [2]: binds
B2: Setd5 (protein, UniProt Q5XJV7 1-1441)
chain: MSIAIPLGVTTPDTSYSDMAAGSDPESVEASPAVNEKSVYSTHNYGTTQRHGCRGLPYATIIPRSDLNGLPSPVEERCGDSPNSEGETVPTWCPCGLSQDGFLLNCDKCRGMSRGKVIRLHRRKQDNISGGDSSATESWDEELSPSTVLYTATQHTPTSITLTVRRTKPKKRKKSPEKGRAAPKTKKIKNSPSEAQNLDENTTEGWENRIRLWTDQYEEAFTNQYSADVQNALEQHLHSNKEFVGKPAILDTINKTELACNNTVIGSQMQLQLGRVTRVQKHRKILRAARDLALDTLIIEYRGKVMLRQQFEVNGHFFKKPYPFVLFYSKFNGVEMCVDARTFGNDARFIRRSCTPNAEVRHMIADGMIHLCIYAVSAITKDAEVTIAFDYEYSNCNYKVDCACHKGNRNCPIQKRNPNAAELPLPPPPSFPTIGAETRRRKARRKELELEQQNEVPEENPDPQPQEVPEKVTVSNEHEEVDNPEEKPEEEEKEEATDDQENSAHSRRTREDRKVEAIMHAFESLEKRKKRRDQPVEQSSSDIEITTSSSEIVVGEETKTAAPESEVSSPVSNVAIPSTPQSTGVNTRRSSHAGDVAAEKPIPKPPPAKPSRPRPKSRISRYRTSSAQRLKRQKQAIAQQAELSQAALEEGGSNNSVTPPEAGNTDSSGENRQLTGSDPTVISVTGSHVNRAASKYPKTKKYLVTEWLNDKAEKQECPVECPLRITTDPTVLATTLNMLPGLIHSPLICTTPKHYIRFGSPFMPERRRRPLLPDGTFSSCKKRWIKQALEEGMTQTSSVPQETRTQHLYQSNETSNSSSICKDNADLLSPLKKWKSRYLMEQNITKLLQPLSPVTPPPPSSGSKSPQLTTPGQTHPGEEECRNGYSLMFSPITSLTTASRSNTPLQFELCHRKDLDLTKVGFPDSSTHSCADRPSLLNCNHPDLASHPSVVPTSEAGFPSRSGDGPQTLLRNSDQAFRTEFNLMYAYSPLNAMPRADGLYRGSPLVGDRKPLHLDGGYCSPAEGFSSRYEHGFMKDLSRGSMSPGGERTCEGVPSAPQNPPQRKKVSLLEYRKRKQEAKENSGGGNDSSQSKSKSSGAGQGSSNSVSDTGAHGVQGSSAGTPSSPHKKFSPSHSSASHLEAVSPSDSRGTSSSHCRPQENISSRWMVPTSVERLREGGSIPKVLRSSVRVAQKGEPSPTWESNITEKESDPADGEGPEPLSSALSKGATVYSPSRYSYQLLQCDSPRTESQSLLQQSSSPFRGHPTQSPGYSYRTTALRPGNPPSHGSSESSLSSTSYPSPAHPVSTDSLAPFTGTPGYYSSQPHSGNSTGSNLPRRSCSSSAASPTPQGPSDSPTSDSVSQSSTGTLSSTSFPQNSRSSLPSDLRTISLPNAGQSAAYQASRVSAVSNSQHYPHRGSGGVHQYRLQPLQGSGVKTQTGLS

binding [1]: binds
binding [2]: binds
B4: transducin (beta)-like 1 X-linked receptor 1 (protein, UniProt Q8BHJ5 1-514)
chain: MSISSDEVNFLVYRYLQESGFSHSAFTFGIESHISQSNINGALVPPAALISIIQKGLQYVEAEVSINEDGTLFDGRPIESLSLIDAVMPDVVQTRQQAYRDKLAQQHAAAAAAAAAATNQQGSAKNGENTANGEENGAHTIANNHTDMMEVDGDVEIPSNKAVVLRGHESEVFICAWNPVSDLLASGSGDSTARIWNLSENSTSGPTQLVLRHCIREGGQDVPSNKDVTSLDWNSEGTLLATGSYDGFARIWTKDGNLASTLGQHKGPIFALKWNKKGNFILSAGVDKTTIIWDAHTGEAKQQFPFHSAPALDVDWQSNNTFASCSTDMCIHVCKLGQDRPIKTFQGHTNEVNAIKWDPTGNLLASCSDDMTLKIWSMKQDNCVHDLQAHNKEIYTIKWSPTGPGTNNPNANLMLASASFDSTVRLWDVDRGICIHTLTKHQEPVYSVAFSPDGRYLASGSFDKCVHIWNTQTGALVHSYRGTGGIFEVCWNAAGDKVGASASDGSVCVLDLRK
